Results on 17 molecules are retold here after PubChem BioAssay AID2685 (National Center for Advancing Translational Sciences (NCATS), 2010).

Some of the results follow. The main result of the screen is listed elsewhere. These columns were measured beside it and carry no call. Compounds called inactive in the main read-out are mostly missing here. The note in brackets gives the kind of curve behind each potency; many fits are weak.

The nature of this test: qHTS Assay for Lipid Storage Modulators in Drosophila S3 Cells.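 On cell number change: cells counted by Cell Tracker Red CMTPX staining in the red channel.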 The settings on record: BODIPY lipid droplet fluorescence, 18-24 h; for cell number change: measured here: cell count max response, cells fed with added oleic acid. In outline:
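Drosophila S3 cells got compounds at several concentrations plus oleic acid (400 uM solution). Laser-scanning cytometry with 488 nm excitation read lipid droplets at 500-530 nm and cells at 575-640 nm. Percent activity was relative to 20 uM Triacsin C.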
A general note: Quantitative high-throughput screening tests each substance at several concentrations.

[1] abbreviates: measured here: lipid fluorescence (Fed channel) AC50, cells fed with added oleic acid.
Setting [2] is: measured here: cell number channel AC50, cells fed with added oleic acid.

On to `O=S(=O)(/N=C(\Sc1ccc(Cl)cc1)c1ccccc1)c1ccccc1`, for which the cell number change is -15.9%.
A word on the AC50: it is the concentration giving half of the maximal activity seen. A higher AC50 goes with weaker potency. On to `COc1cc(S(=O)(=O)NCc2cccnc2)c(OC)cc1Br`, for which the cell number change stood at 13.1%. For the same molecule, the AC50 under setting [1] is 2.06 µM [rising, partial curve, poor fit].
For the molecule `CCCn1c(Cc2ccccc2)n[nH]c1=S`, the cell number change is 5.89%. In addition, the AC50 under setting [1] is 1.46 µM [rising, partial curve].
On to `CCc1ccccc1NC(=O)Cc1ccc(-n2cccc2)cc1`, for which the cell number change is 33.2%. Besides, the AC50 under setting [2] is 29.1 µM [rising, single point].
For the molecule `O=C(NCC1CCCO1)c1ccc(COc2ccccc2)o1` (stereo not given), the cell number change is -75%. For the same molecule, the AC50 under setting [2] was 14.6 µM [falling, partial curve].
With `COC(=O)CC1COc2ccccc2N1C(=O)/C=C/c1ccccc1` (stereo not given), the cell number change was 18.6%. For the same molecule, the AC50 under setting [1] is 5.8 µM [rising, partial curve].
Consider `COC(=O)c1sc2nc(C)c([N+](=O)[O-])c(C)c2c1N`, for which the cell number change is 88.4%. In addition, under setting [2], the AC50 was 29.1 µM [rising, single point].
As for `N#Cc1ccccc1OCC(=O)N(Cc1nnc(-c2ccccc2Cl)o1)C1CC1`, the cell number change is 1.35%. For the same molecule, the AC50 under setting [2] was 2.31 µM [rising, partial curve].
For `Cc1ccc(C(=O)N2NC(c3ccc(F)cc3)C3C(=O)N(c4ccc(C)c(C)c4)C(=O)C32)cc1` (stereo not given), the cell number change amounted to 2.26%. Also, the concentration at half-maximal activity (AC50) under setting [1] is 1.64 µM [falling, partial curve].
As for `Cc1cccc(NC(=O)Nc2ccccc2[N+](=O)[O-])n1`, the cell number change is -13.9%. The AC50 under setting [1] was 0.58 µM [falling, single point].
Turning to `COc1ccc2[nH]c3c(=O)n(CCCC(=O)NC4CCCCC4C)c(=S)[nH]c3c2c1` (stereo not given), the cell number change was -7.67%. In addition, under setting [1], the half-maximal activity concentration (AC50) was 11.6 µM [falling, single point].
Turning to `COc1ccccc1C(=O)OCC(=O)NC12CC3CC(CC(C3)C1)C2`, the cell number change was -86.1%. The AC50 under setting [2] is 20.6 µM [falling, partial curve]. Also, under setting [1], the AC50 is 23.1 µM [falling, partial curve].
For `Cc1occc1-c1nnc(SCC(=O)c2c(N)n(Cc3ccccc3)c(=O)n(C)c2=O)n1C`, the cell number change was 11.6%. The AC50 under setting [2] is 0.82 µM [rising, full curve]. Under setting [1], the AC50 was 0.58 µM [rising, partial curve].
In the case of `O=C(Cn1ccc2ccccc2c1=O)N1CCN(c2cccc(Cl)c2)CC1`, the cell number change was 10.1%. In addition, the concentration at half-maximal activity (AC50) under setting [2] is 0.0411 µM [rising, partial curve, poor fit].
For the molecule `CC(=O)NC(CCS(C)(=O)=O)C(=O)Nc1cccc2ccccc12` (stereo not given), the cell number change came out at 13%. Moreover, the AC50 under setting [1] is 0.731 µM [falling, full curve].
For the molecule `Cc1ccc(NC(=O)CC2=NC(=O)C(CC(=O)Nc3ccccc3F)S2)cc1` (stereo not given), the cell number change was -50.3%. In addition, under setting [2], the AC50 was 32.6 µM [falling, single point].
Turning to `CCn1c(=O)n(CC)c2cc(N3CCCC3)c(NC(=O)c3cccc(Cl)c3)cc21`, the cell number change was 5.97%. In addition, the AC50 under setting [1] was 11.6 µM [falling, partial curve].
